Results from US6448293B1, “Diphenyl ether compounds useful in therapy” (Pfizer Inc., priority 2000, dated 2002).
Some of these results come from one statement about several compounds together.

By UniProt entry, the sequences of proteins in these tests, tags left out.
UniProt P31645, whole entry: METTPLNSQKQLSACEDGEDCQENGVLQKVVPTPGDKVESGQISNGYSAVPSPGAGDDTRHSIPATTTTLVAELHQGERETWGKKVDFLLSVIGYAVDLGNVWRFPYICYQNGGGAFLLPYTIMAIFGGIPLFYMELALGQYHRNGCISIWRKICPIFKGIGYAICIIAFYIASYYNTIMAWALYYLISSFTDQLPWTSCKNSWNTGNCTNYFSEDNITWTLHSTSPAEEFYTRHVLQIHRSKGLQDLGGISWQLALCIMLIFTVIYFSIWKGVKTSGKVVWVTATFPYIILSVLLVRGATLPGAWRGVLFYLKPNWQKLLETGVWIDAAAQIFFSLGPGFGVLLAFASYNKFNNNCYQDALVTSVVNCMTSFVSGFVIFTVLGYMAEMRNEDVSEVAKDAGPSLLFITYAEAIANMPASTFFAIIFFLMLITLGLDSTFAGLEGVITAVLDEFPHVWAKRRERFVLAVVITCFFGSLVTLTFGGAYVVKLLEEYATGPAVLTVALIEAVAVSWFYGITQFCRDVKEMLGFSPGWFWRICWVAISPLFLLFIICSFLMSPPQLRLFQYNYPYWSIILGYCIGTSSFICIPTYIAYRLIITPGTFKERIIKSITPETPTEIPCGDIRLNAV

Target: T1, human serotonin transporter (hSERT) (Homo sapiens, UniProt P31645)
T1 construct: expressed in transfected cells; host or cells: HEK-293 (human embryonic kidney cells), stably transfected
Test: Inhibition of 3H-Serotonin uptake into HEK-293 cells stably transfected with hSERT
Format: cell-based
Conditions: for IC50: HEK-293 cells transfected with hSERT, 3H-Serotonin uptake, 5 minutes incubation, room temperature, read-out: serotonin re-uptake inhibition (SRI) IC50; for fold as potent in the inhibition of serotonin re-uptake than in the inhibition of dopamine re-uptake and noradrenaline re-uptake: selectivity of hSERT over both hDAT and hNET uptake inhibition; for fold as potent in the inhibition of serotonin re-uptake than in the inhibition of dopamine re-uptake or noradrenaline re-uptake: selectivity of hSERT over hDAT or hNET uptake inhibition
Protocol: A number of compounds were tested for biological activity by their ability to inhibit the uptake of serotonin by human serotonin transporters as follows.
Human embryonic kidney cells (HEK-293) stably transfected with either the human serotonin transporter (hSERT), noradrenaline transporter (hNET) or dopamine transporter (hDAT) were cultured under standard cell culture techniques (cells were grown at 37° C and 5% CO2 in DMEM-culture media (supplemented with 10% dialysed foetal calf serum (FCS), 2 mM 1-glutamine and 250 μg/ml geneticin)). Cells were harvested for the assay to yield a cell suspension of 750,000 cells/ml.
(i) Determination of inhibitor potency
All test compounds were dissolved in 100% DMSO and diluted down in assay buffer to give appropriate test concentrations. Assays were carried out in 96-well filter bottom plates. Cells (7500 cells/assay well) were pre-incubated in standard assay buffer containing either test compound, standard inhibitor or compound vehicle (1 % DMSO) for 5 minutes. Reactions were started by addition of either ^3H-Serotonin, ^3H-Noradrenaline or ^3H-Dopamine substrates. All reactions were carried out at room temperature in a shaking incubator. Incubation times were 5 minutes for the hSERT and hDAT assays and 15 minutes for the hNET assay. Reactions were terminated by removal of the reaction mixture using a vacuum manifold followed by rapid washing with ice cold assay buffer. The quantity of ^3H-substrate incorporated into the cells was then quantified.
Assay plates were dried in a microwave oven, scintillation fluid added, and radioactivity measured.
(iii) Standard Assay Buffer Composition:
Note: The pH of the buffer was adjusted to 7.40 with 1 M NaOH before addition of CaCI2 and pargyline.
(iv) Summary of Assay Parameters

Structure (SMILES)	IC50	fold as potent in the inhibition of serotonin re-uptake than in the inhibition of dopamine re-uptake and noradrenaline re-uptake	fold as potent in the inhibition of serotonin re-uptake than in the inhibition of dopamine re-uptake or noradrenaline re-uptake
CN(C)Cc1cc(Br)ccc1Oc1cccc(C(F)(F)F)c1 [Example 1]	≤ 100 nM		
CN(C)Cc1cc(Br)ccc1Oc1ccc(C(F)(F)F)cc1 [Example 3]	≤ 100 nM		
CSc1ccc(Oc2ccc(Br)cc2CN(C)C)cc1 [Example 9]	≤ 100 nM	more than 100 fold	
CSc1ccc(Oc2ccc(F)cc2CN(C)C)cc1 [Example 10]	≤ 100 nM		
CN(C)Cc1ccc(Br)cc1Oc1ccc(C(F)(F)F)cc1 [Example 12]	≤ 100 nM		
COc1ccc(Oc2ccc(SC)cc2)c(CN(C)C)c1 [Example 14]	≤ 100 nM	more than 100 fold	
CSc1ccc(Oc2ccc(S(N)(=O)=O)cc2CN(C)C)cc1 [Example 28, 3-[(Dimethylamino)methyl]-4-[4-(methylsulfanyl)phenoxy]benzenesulfonamide]	≤ 100 nM	more than 100 fold	
CNCc1cc(S(=O)(=O)N(C)C)ccc1Oc1ccc(C(F)(F)F)cc1 [Example 29]	≤ 100 nM	more than 100 fold	
CNS(=O)(=O)c1ccc(Oc2ccc(C(F)(F)F)cc2)c(CN(C)C)c1 [Example 30]	≤ 100 nM	more than 100 fold	
CN(C)Cc1cc(S(=O)(=O)NCCO)ccc1Oc1ccc(C(F)(F)F)cc1 [Example 31]	≤ 100 nM		
CN(C)Cc1cc(S(=O)(=O)N(C)C)ccc1Oc1ccc(C(F)(F)F)cc1 [Example 32]	≤ 100 nM		
CN(C)Cc1cc(S(N)(=O)=O)ccc1Oc1ccc(C(F)(F)F)cc1 [Example 33]	≤ 100 nM		more than 10 fold
CNCc1cc(S(N)(=O)=O)ccc1Oc1ccc(OC(F)(F)F)cc1 [Example 35]	≤ 100 nM	more than 100 fold	
CNS(=O)(=O)c1ccc(Oc2ccc(OC(F)(F)F)cc2)c(CN(C)C)c1 [Example 37]	≤ 100 nM		
CNCc1cc(S(N)(=O)=O)ccc1Oc1ccc(SC)cc1 [Example 42]	≤ 100 nM		
CNCc1cc(S(=O)(=O)NC)ccc1Oc1ccc(SC)cc1 [Example 43]	≤ 100 nM		
CNCc1cc(S(=O)(=O)N(C)C)ccc1Oc1ccc(SC)cc1 [Example 44]	≤ 100 nM		
CNS(=O)(=O)c1ccc(Oc2ccc(SC)cc2)c(CN(C)C)c1 [Example 45]	≤ 100 nM		more than 10 fold
CCNS(=O)(=O)c1ccc(Oc2ccc(SC)cc2)c(CN(C)C)c1 [Example 50]	≤ 100 nM		
CSc1ccc(Oc2ccc(S(=O)(=O)N[C@@H](C)CO)cc2CN(C)C)cc1 [Example 53]	≤ 100 nM	more than 100 fold	
CSc1ccc(Oc2ccc(S(=O)(=O)NCC(N)=O)cc2CN(C)C)cc1 [Example 55]	≤ 100 nM		

Structure (SMILES)	IC50	fold as potent in the inhibition of serotonin re-uptake than in the inhibition of dopamine re-uptake and noradrenaline re-uptake	fold as potent in the inhibition of serotonin re-uptake than in the inhibition of dopamine re-uptake or noradrenaline re-uptake
CSc1ccc(Oc2ccc(S(=O)(=O)N(C)C)cc2CN(C)C)cc1 [Example 59]	≤ 100 nM		
CCSc1ccc(Oc2ccc(S(N)(=O)=O)cc2CN(C)C)cc1 [Example 60]	≤ 100 nM		
CNCc1cc(S(N)(=O)=O)ccc1Oc1ccc(OC)c(SC)c1 [Example 61, 4-[4-Methoxy-3-(methylsulfanyl)phenoxy]-3-[(methylamino)methyl]-benzenesulfonamide]	≤ 100 nM		
CNCc1cc(S(N)(=O)=O)ccc1Oc1ccc(SC)c(OC)c1 [Example 62]	≤ 100 nM		
COc1cc(Oc2ccc(S(N)(=O)=O)cc2CN(C)C)ccc1SC [Example 64]	≤ 100 nM		
COc1ccc(Oc2ccc(S(N)(=O)=O)cc2CN(C)C)cc1SC [Example 65]	≤ 100 nM		more than 10 fold
CSc1ccc(Oc2ccc(CCS(N)(=O)=O)cc2CN(C)C)cc1 [Example 71, 2-{3-[(Dimethylamino)methyl]-4-[4-(methylsulfanyl)phenoxy]-phenyl}ethanesulfonamide]	≤ 100 nM		
CSc1ccc(Oc2cc(CCS(N)(=O)=O)ccc2CN(C)C)cc1 [Example 72, 2-{4-[(Dimethylamino)methyl]-3-[4-(methylsulfanyl)phenoxy]phenyl}-ethanesulfonamide]	≤ 100 nM		
CSc1ccc(Oc2ccc(O)cc2CN(C)C)cc1 [Example 73, 3-[(Dimethylamino)methyl]-4-[4-(methylsulfanyl)phenoxy]phenol]	≤ 100 nM		
CNCc1cc(O)ccc1Oc1ccc(SC)cc1 [Example 74, 3-[(Methylamino)methyl]-4-[4-(methylsulfanyl)phenoxy]phenol]	≤ 100 nM	more than 100 fold	
CSc1ccc(Oc2ccc(CCC(N)=O)cc2CN(C)C)cc1 [Example 75, 3-{3-[(Dimethylamino)methyl]-4-[4-(methylsulfanyl)phenoxy]phenyl}propanamide]	≤ 100 nM		
CSc1ccc(Oc2cc(CCC(N)=O)ccc2CN(C)C)cc1 [Example 76, 3-{4-[(Dimethylamino)methyl]-3-[4-(methylsulfanyl)phenoxy]phenyl}propanamide]	≤ 100 nM		
CNCc1cc(S(N)(=O)=O)c(Br)cc1Oc1ccc(OC(F)(F)F)cc1 [Example 77, 2-Bromo-5-[(methylamino)methyl]-4-[4-(trifluoromethoxy)phenoxy]-benzenesulfonamide]	≤ 100 nM		
CNCc1cc(S(N)(=O)=O)c(SC)cc1Oc1ccc(OC(F)(F)F)cc1 [Example 78, 5-[(Methylamino)methyl]-2-(methylsulfanyl)-4-[4-(trifluoromethoxy)phenoxy]-benzenesulfonamide]	≤ 100 nM		
CN(C)Cc1cc(S(N)(=O)=O)c(Br)cc1Oc1ccc(OC(F)(F)F)cc1 [Example 79, 2-bromo-5-[(dimethylamino)methyl]-4-[4-(trifluoromethoxy)phenoxy]-benzenesulfonamide]	≤ 100 nM		
CSc1cc(Oc2ccc(OC(F)(F)F)cc2)c(CN(C)C)cc1S(N)(=O)=O [Example 80, 5-[(dimethylamino)methyl]-2-(methylsulfanyl)-4-[4-(trifluoromethoxy)phenoxy]-benzenesulfonamide]	≤ 100 nM		
CN(C)Cc1cc(C#N)ccc1Oc1ccc(OC(F)(F)F)cc1 [Example 84]	≤ 100 nM	more than 100 fold	
CSc1ccc(Oc2ccc(C#N)cc2CN(C)C)cc1 [Example 85]	≤ 100 nM	more than 100 fold	
CNCc1cc(C#N)ccc1Oc1ccc(SC)cc1 [Example 87, 3-[(Methylamino)methyl]-4-[4-(methylsulfanyl)phenoxy]benzonitrile]	≤ 100 nM	more than 100 fold	
CN(C)Cc1ccc(C(N)=O)cc1Oc1ccc(C(F)(F)F)cc1 [Example 90, 4-[(Dimethylamino)methyl]-3-[4-(trifluoromethyl)phenoxy]benzamide]	≤ 100 nM	more than 100 fold	
